Test results reported in article PMC7948961, “Proteomic identification and validation of novel interactions of the putative tumor suppressor PRELP with membrane proteins including IGFI-R and p75NTR” (The Journal of Biological Chemistry, 2021).

Target: T1, Human PRELP (proline and arginine-rich end leucine-rich repeat protein) with a C-terminal FLAG tag, overexpressed in Expi293 cells (human) (UniProt P51888)
T1 sequence: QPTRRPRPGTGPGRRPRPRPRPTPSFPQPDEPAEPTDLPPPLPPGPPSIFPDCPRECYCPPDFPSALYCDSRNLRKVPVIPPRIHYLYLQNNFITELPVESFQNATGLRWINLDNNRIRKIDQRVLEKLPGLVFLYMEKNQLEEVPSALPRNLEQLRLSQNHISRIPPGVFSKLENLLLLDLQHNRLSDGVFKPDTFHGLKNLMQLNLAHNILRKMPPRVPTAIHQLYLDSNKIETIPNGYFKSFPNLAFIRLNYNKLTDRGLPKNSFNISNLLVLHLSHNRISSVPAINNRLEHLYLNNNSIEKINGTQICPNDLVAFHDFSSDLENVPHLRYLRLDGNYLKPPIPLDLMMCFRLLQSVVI
Assay: affinity purification with mass spectrometry; CoIP-MS: DDM extract (0.1% DDM, PBS pH 7.4) of the membrane fraction of Expi293 cells expressing PRELP-FLAG, captured on DDDDK-tagged Protein Purification Gel overnight at 4 °C, eluted with FLAG peptide; S-Trap digestion, LC-MS/MS; compared with control-transfected cells

binding: binds
B1: Carboxypeptidase D (protein, UniProt O75976 32-1380)
chain: AHIKKAEATTTTTSAGAEAAEGQFDRYYHEEELESALREAAAAGLPGLARLFSIGRSVEGRPLWVLRLTAGLGSLIPEGDAGPDAAGPDAAGPLLPGRPQVKLVGNMHGDETVSRQVLIYLARELAAGYRRGDPRLVRLLNTTDVYLLPSLNPDGFERAREGDCGFGDGGPSGASGRDNSRGRDLNRSFPDQFSTGEPPALDEVPEVRALIEWIRRNKFVLSGNLHGGSVVASYPFDDSPEHKATGIYSKTSDDEVFKYLAKAYASNHPIMKTGEPHCPGDEDETFKDGITNGAHWYDVEGGMQDYNYVWANCFEITLELSCCKYPPASQLRQEWENNRESLITLIEKVHIGVKGFVKDSITGSGLENATISVAGINHNITTGRFGDFYRLLVPGTYNLTVVLTGYMPLTVTNVVVKEGPATEVDFSLRPTVTSVIPDTTEAVSTASTVAIPNILSGTSSSYQPIQPKDFHHHHFPDMEIFLRRFANEYPNITRLYSLGKSVESRELYVMEISDNPGVHEPGEPEFKYIGNMHGNEVVGRELLLNLIEYLCKNFGTDPEVTDLVHNTRIHLMPSMNPDGYEKSQEGDSISVIGRNNSNNFDLNRNFPDQFVQITDPTQPETIAVMSWMKSYPFVLSANLHGGSLVVNYPFDDDEQGLATYSKSPDDAVFQQIALSYSKENSQMFQGRPCKNMYPNEYFPHGITNGASWYNVPGGMQDWNYLQTNCFEVTIELGCVKYPLEKELPNFWEQNRRSLIQFMKQVHQGVRGFVLDATDGRGILNATISVAEINHPVTTYKTGDYWRLLVPGTYKITASARGYNPVTKNVTVKSEGAIQVNFTLVRSSTDSNNESKKGKGASSSTNDASDPTTKEFETLIKDLSAENGLESLMLRSSSNLALALYRYHSYKDLSEFLRGLVMNYPHITNLTNLGQSTEYRHIWSLEISNKPNVSEPEEPKIRFVAGIHGNAPVGTELLLALAEFLCLNYKKNPAVTQLVDRTRIVIVPSLNPDGRERAQEKDCTSKIGQTNARGKDLDTDFTNNASQPETKAIIENLIQKQDFSLSVALDGGSMLVTYPYDKPVQTVENKETLKHLASLYANNHPSMHMGQPSCPNKSDENIPGGVMRGAEWHSHLGSMKDYSVTYGHCPEITVYTSCCYFPSAARLPSLWADNKRSLLSMLVEVHKGVHGFVKDKTGKPISKAVIVLNEGIKVQTKEGGYFHVLLAPGVHNIIAIADGYQQQHSQVFVHHDAASSVVIVFDTDNRIFGLPRELVVTVSGATMSALILTACIIWCICSIKSNRHKDGFHRLRQHHDEYEDEIRMMSTGSKKSLLSHEFQDETDTEEETLYSSKH

binding: binds
B2: Cadherin-related family member 1 (protein, UniProt Q96JP9 20-859)
chain: QANFAPHFFDNGVGSTNGNMALFSLPEDTPVGSHVYTLNGTDPEGDPISYHISFDPSTRSVFSVDPTFGNITLVEELDREREDEIEAIISISDGLNLVAEKVVILVTDANDEAPRFIQEPYVALVPEDIPAGSIIFKVHAVDRDTGSGGSVTYFLQNLHSPFAVDRHSGVLRLQAGATLDYERSRTHYITVVAKDGGGRLHGADVVFSATTTVTVNVEDVQDMAPVFVGTPYYGYVYEDTLPGSEVLKVVAMDGDRGKPNRILYSLVNGNDGAFEINETSGAISITQSPAQLQREVYELHVQVTEMSPAGSPAAQATVPVTIRIVDLNNHPPTFYGESGPQNRFELSMNEHPPQGEILRGLKITVNDSDQGANAKFNLQLVGPRGIFRVVPQTVLNEAQVTIIVENSAAIDFEKSKVLTFKLLAVEVNTPEKFSSTADVVIQLLDTNDNVPKFDSLYYVARIPENAPGGSSVVAVTAVDPDTGPWGEVKYSTYGTGADLFLIHPSTGLIYTQPWASLDAEATARYNFYVKAEDMEGKYSVAEVFITLLDVNDHPPQFGKSVQKKTMVLGTPVKIEAIDEDAEEPNNLVDYSITHAEPANVFDINSHTGEIWLKNSIRSLDALHNITPGRDCLWSLEVQAKDRGSPSFSTTALLKIDITDAETLSRSPMAAFLIQTKDNPMKAVGVLAGTMATVVAITVLISTATFWRNKKSNKVLPMRRVLRKRPSPAPRTIRIEWLKSKSTKAATKFMLKEKPPNENCNNNSPESSLLPRAPALPPPPSVAPSTGAAQWTVPTVSGSLTPQPTQPPPKPKTMGSPVQSTLISELKQKFEKKSVHNKAYF

These are yes or no findings as the source states them, for the method shown. Binding seen in cells or lysates may run through a third protein. Here binding means that the protein was enriched with, or labelled near, the bait; the list need not be complete. Where a sequence is shown, tags or fusion partners need not be part of it. Each block holds one binder with its values, some of them ahead of it.
